The supplement of paper PMC9233669
Variants at the floor of the assay are shown more often than the library holds them.

How the values were obtained:
biotinyl-Trp-oxazolone = test: self-aminoacylation, catalytic enhancement (BWO) (fold over background); higher = more active; k-Seq, kA / k0A0; sequences stand for … in GGGAAUGGAUCCACAUCUACGAAUUC…UUCACUGCAGACUUGACGAAGCUG
Procedure, shortened: (§1)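 Mutagenized RNA pools with a 21-nt variable region (0.43 μM) reacted with each biotinyl-aminoacyl-oxazolone at 2–1250 μM. Reactions ran in 50 μL HEPES/NaCl/KCl/MgCl2/CaCl2 buffer with 5% acetonitrile, pH 6.9–7.0, for 90 minutes at room temperature. Streptavidin-captured RNA was quantified by triplicate qPCR and Illumina sequencing, and per-sequence fraction reacted was fit to a pseudo-first-order model with 1000 bootstraps. Catalytic enhancement is median kA divided by the uncatalyzed rate, the low-activity peak of a bimodal Gaussian fit.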

biotinyl-Leu-oxazolone = test: self-aminoacylation, catalytic enhancement (BLO) (fold over background); higher = more active; k-Seq, kA / k0A0; sequences stand for … in GGGAAUGGAUCCACAUCUACGAAUUC…UUCACUGCAGACUUGACGAAGCUG
Procedure, shortened: as §1

biotinyl-Val-oxazolone = test: self-aminoacylation, catalytic enhancement (BVO) (fold over background); higher = more active; k-Seq, kA / k0A0; sequences stand for … in GGGAAUGGAUCCACAUCUACGAAUUC…UUCACUGCAGACUUGACGAAGCUG
Procedure, shortened: as §1

biotinyl-Met-oxazolone = test: self-aminoacylation, catalytic enhancement (BMO) (fold over background); higher = more active; k-Seq, kA / k0A0; sequences stand for … in GGGAAUGGAUCCACAUCUACGAAUUC…UUCACUGCAGACUUGACGAAGCUG
Procedure, shortened: as §1

biotinyl-Ile-oxazolone = test: self-aminoacylation, catalytic enhancement (BIO) (fold over background); higher = more active; k-Seq, kA / k0A0; sequences stand for … in GGGAAUGGAUCCACAUCUACGAAUUC…UUCACUGCAGACUUGACGAAGCUG
Procedure, shortened: as §1

Row | Sequence | self-aminoacylation (biotinyl-Trp-oxazolone) | self-aminoacylation (biotinyl-Leu-oxazolone) | self-aminoacylation (biotinyl-Val-oxazolone) | self-aminoacylation (biotinyl-Met-oxazolone) | self-aminoacylation (biotinyl-Ile-oxazolone)
1 | AAGUUUUCAAAUAGUCGCAAG [Fam3.1 aminoacylation ribozyme variant] | 1.65 | 1.65 | 1.39 | 1.59 | 1.68
2 | AGUACCCUGGUCAUCGAGUGC [Fam2.1 aminoacylation ribozyme variant] | 1.3 | 1.77 | 1.31 | 1.91 | 1.09
3 | CUACUUCAAACACUCGGUCGG [Fam1A.1 aminoacylation ribozyme variant] | 1.17 | 1.98 | 1.27 | 1.64 | 1.57
4 | CUACGUCAAACGAUCGGUCUG [Fam1A.1 aminoacylation ribozyme variant] | 0.956 | 1.64 | 1.76 | 1.67 | 1.49
5 | CCAACCUUCAAGCAAUCGGUC [Fam1B.1 aminoacylation ribozyme variant] | 15.3 | 1.6 | 1.41 | 1.37 | 1.28
6 | AAGUCUCCUAAUAGUCGCAAG [Fam3.1 aminoacylation ribozyme variant] | 1.13 | 1.73 | 1.34 | 1.31 | 1.39
7 | AAGGUAGCUAAUAGUCGCAAG [Fam3.1 aminoacylation ribozyme variant] | 1.45 | 1.53 | 1.57 | 1.31 | 1.49
8 | CUACUUCAAACAAUCACUCUG [Fam1A.1 aminoacylation ribozyme variant] | 1.11 | 0.611 | 0.761 | 0.457 | 0.646
9 | AUUAUCCUGGUCAUCGAGUUA [Fam2.1 aminoacylation ribozyme variant] | 1.09 | 1.51 | 1.31 | 1.62 | 1.2
10 | AAGUUUGUUAAUAGUCGCAAG [Fam3.1 aminoacylation ribozyme variant] | 1.27 | 1.15 | 1.14 | 1.16 | 1.27
11 | CCACACUUCAAGCUAUCGCUC [Fam1B.1 aminoacylation ribozyme variant] | 1.28 | 1.3 | 1.93 | 1.51 | 1.8
12 | ACACACUUCAAGCGAUCGGUC [Fam1B.1 aminoacylation ribozyme variant] | 1.49 | 1.34 | 1.34 | 1.18 | 1.39
13 | AUUACCCUGGUCUUCGAGUGA [Fam2.1 aminoacylation ribozyme variant] | 6.84 | 5.52 | 3.3 | 5.36 | 3.09
14 | CAGUUUGCUAAGAGUCGCAAG [Fam3.1 aminoacylation ribozyme variant] | 1.07 | 1.09 | 1.06 | 1.35 | 1.07
15 | AGUACCCCGGUCAUCGAGUGA [Fam2.1 aminoacylation ribozyme variant] | 7.21 | 6.8 | 3.75 | 5.52 | 3.7
16 | CUACUUGAAACACUCGGUCUG [Fam1A.1 aminoacylation ribozyme variant] | 0.946 | 1.48 | 1.11 | 1.02 | 1.13
17 | ACUCACCUAGGUCAUCGGGUU [Fam2.2 aminoacylation ribozyme variant] | 6.68 | 11.3 | 5.06 | 8.19 | 5.92
18 | AUUCACCUAGGUCCUCGUGUG [Fam2.2 aminoacylation ribozyme variant] | 0.792 | 1.54 | 1.14 | 1.31 | 1.04
19 | CAACACUUCAAGAAAUCGGUC [Fam1B.1 aminoacylation ribozyme variant] | 5.88 | 0.914 | 0.871 | 1.05 | 0.956

Row | Sequence | self-aminoacylation (biotinyl-Trp-oxazolone) | self-aminoacylation (biotinyl-Leu-oxazolone) | self-aminoacylation (biotinyl-Val-oxazolone) | self-aminoacylation (biotinyl-Met-oxazolone) | self-aminoacylation (biotinyl-Ile-oxazolone)
20 | CCACACUUCAAGCGAUCGGAC [Fam1B.1 aminoacylation ribozyme variant] | 1.36 | 1.26 | 1.27 | 1.33 | 1.22
21 | ACGUUUGCUAAUAGUCGCAGG [Fam3.1 aminoacylation ribozyme variant] | 1 | 1.58 | 1.56 | 1.78 | 1.49
22 | CCAUACUUCAAACAAUCGGUC [Fam1B.1 aminoacylation ribozyme variant] | 30.3 | 1.91 | 1.19 | 1.12 | 1.3
23 | AUGUUUGCUAAUAGUCGGAAG [Fam3.1 aminoacylation ribozyme variant] | 1.93 | 0.93 | 0.847 | 0.991 | 1.12
24 | CAGUUUGCUAAUAGUCGCAAC [Fam3.1 aminoacylation ribozyme variant] | 0.966 | 1.28 | 1.25 | 1.19 | 1.33
25 | AUGACCCUGGUCAUCGCGUGA [Fam2.1 aminoacylation ribozyme variant] | 19.7 | 17.1 | 7.53 | 16 | 7.46
26 | CUAAAUCAAACAAUCGGUCUG [Fam1A.1 aminoacylation ribozyme variant] | 1.53 | 0.567 | 0.733 | 0.731 | 0.724
27 | AUACACCUAGGUCAGCGGGUG [Fam2.2 aminoacylation ribozyme variant] | 3.08 | 3.49 | 2.15 | 3.8 | 2.29
28 | CAACACUUCAAGCAAUCGGAC [Fam1B.1 aminoacylation ribozyme variant] | 0.815 | 0.957 | 0.966 | 0.775 | 1.16
29 | CCACACUUCAAGCACUGGGUC [Fam1B.1 aminoacylation ribozyme variant] | 1.03 | 0.971 | 1.1 | 0.66 | 0.807
30 | AUAACCCUGGUCAUCCAGUGA [Fam2.1 aminoacylation ribozyme variant] | 6.17 | 6.28 | 3.21 | 5.52 | 3.62
31 | AUUCACCUAGGUCAUCGUGCG [Fam2.2 aminoacylation ribozyme variant] | 0.796 | 1.65 | 1.41 | 1.62 | 1.21
32 | AUUAUCCUGGUCAUCUAGUGA [Fam2.1 aminoacylation ribozyme variant] | 13.2 | 10.8 | 4.98 | 10.6 | 4.87
33 | AAGUUUGCUCACAGUCGCAAG [Fam3.1 aminoacylation ribozyme variant] | 1.73 | 0.91 | 0.889 | 0.718 | 0.815
34 | CUACUCCAAACAAUCUGUCUG [Fam1A.1 aminoacylation ribozyme variant] | 0.506 | 0.716 | 0.766 | 0.578 | 0.799
35 | AUUCAGCUAGGUCAUCGGAUG [Fam2.2 aminoacylation ribozyme variant] | 0.809 | 0.746 | 0.707 | 0.528 | 0.772
36 | CAGUUUUCUAAUAGUCGCAAG [Fam3.1 aminoacylation ribozyme variant] | 1.38 | 0.98 | 1.1 | 1.22 | 1.54
37 | CUACUUCAAACAAUCGUACUG [Fam1A.1 aminoacylation ribozyme variant] | 0.573 | 0.389 | 0.533 | 0.419 | 0.519
38 | CUACUUCAGACAAUCGGGCUG [Fam1A.1 aminoacylation ribozyme variant] | 1.33 | 1.25 | 1.62 | 1.82 | 1.46

Row | Sequence | self-aminoacylation (biotinyl-Trp-oxazolone) | self-aminoacylation (biotinyl-Leu-oxazolone) | self-aminoacylation (biotinyl-Val-oxazolone) | self-aminoacylation (biotinyl-Met-oxazolone) | self-aminoacylation (biotinyl-Ile-oxazolone)
39 | CGACUUCUAACAAUCGGUCUG [Fam1A.1 aminoacylation ribozyme variant] | 0.591 | 0.917 | 0.931 | 0.936 | 0.905
40 | AAGUUAGCUAAUAGUCGCACG [Fam3.1 aminoacylation ribozyme variant] | 1.14 | 1.43 | 1.54 | 1.58 | 1.43
41 | AAGUUUGCUAAAAGUCGCAUG [Fam3.1 aminoacylation ribozyme variant] | 1.06 | 1.07 | 1.13 | 0.966 | 0.96
42 | AAGUUGGCUAAUAGUCGCUAG [Fam3.1 aminoacylation ribozyme variant] | 1 | 1.22 | 1.22 | 1.35 | 1.43
43 | AUUACAUUGGUCAUCGAGUGA [Fam2.1 aminoacylation ribozyme variant] | 6.85 | 5.8 | 2.95 | 5.35 | 3.03
44 | AAGUUUGCUAAUACUCGCCAG [Fam3.1 aminoacylation ribozyme variant] | 0.773 | 0.655 | 0.836 | 0.629 | 0.916
45 | CCACGCAUCAAGCAAUCGGUC [Fam1B.1 aminoacylation ribozyme variant] | 1.89 | 0.751 | 1.21 | 0.671 | 0.867
46 | AAGUUUGCUAAUGGCCGCAAG [Fam3.1 aminoacylation ribozyme variant] | 1.35 | 1.24 | 1.46 | 1.3 | 1.27
47 | CUACUUCAAACAAUCGCUCUG [Fam1A.1 aminoacylation ribozyme variant] | 1.43 | 0.603 | 0.685 | 0.574 | 0.673
48 | AAGUUUCCUAAUAGUCGCCAG [Fam3.1 aminoacylation ribozyme variant] | 1.61 | 1.74 | 1.52 | 1.49 | 1.72
49 | AUUCGCCUAGGUCAUCGGUUG [Fam2.2 aminoacylation ribozyme variant] | 1.27 | 1.24 | 1.21 | 1.29 | 1.17
50 | CUUCUCCUAGGUCAUCGGGUG [Fam2.2 aminoacylation ribozyme variant] | 6.52 | 8.84 | 4.48 | 6.43 | 4.42
51 | CUACUCCAAACAAUCGGUUUG [Fam1A.1 aminoacylation ribozyme variant] | 1.77 | 1.07 | 0.901 | 0.786 | 0.987
52 | AUUCACCUACGUCAUCGAGUG [Fam2.2 aminoacylation ribozyme variant] | 3.77 | 4.08 | 2.71 | 4.25 | 2.45
53 | AAGUUUGCUAAUAGUCGCAAA [Fam3.1 aminoacylation ribozyme variant] | 1.61 | 1.32 | 1.39 | 1.48 | 1.6
54 | AUUCCCCUGGUCAUGGAGUGA [Fam2.1 aminoacylation ribozyme variant] | 4.27 | 3.99 | 3.12 | 3.85 | 2.92
55 | CAACUUUAAACAAUCGGUCUG [Fam1A.1 aminoacylation ribozyme variant] | 1.52 | 0.824 | 0.937 | 0.89 | 1.12
56 | UUACUUCAAACAUUCGGUCUG [Fam1A.1 aminoacylation ribozyme variant] | 1.01 | 1.28 | 1.15 | 1.61 | 1.34
